Values from PubChem BioAssay AID504774 (Drosophila RNAi Screening Center, 2011).
Test: 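Knock-downs that shift viability of MMS-exposed cells relative to untreated ones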 (primary screen). System: Drosophila Kc167 cells. Knock-down reagent: long dsRNA against Drosophila genes, about 0.25 µg dsRNA per well. Timing: about 6 days: 3 days knock-down, then 3 days with or without MMS. Treatment: methyl methanesulphonate 0.004% (w/v) for 3 days after knock-down. Measurement: 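Viability in wells given MMS, read as ATP luminescence, normalised by quantiles plate by plate and averaged across replicates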. Direction: mean viability with MMS: higher = more surviving cells after MMS.
In all, the deposit lists about 23,000 reagents; this is a random part of those that have a named target and a result. 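Values are quantile-normalised luminescence on an arbitrary scale; higher means more cells surviving MMS.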 Reagents against one gene are numbered here. Names joined by + are all predicted targets of the reagent. Further read-outs or replicates are left out here.

mean viability with MMS, by gene and reagent
Amy-d + Amy-p: #1 3.52e6
CG1902: #1 3.73e6
CG34054: #1 3.52e6
ApepP: #1 3.25e6
wun: #1 3.65e6
Zasp66: #1 3.57e6; #2 3.62e6; #3 3.70e6
CG5013: #1 3.55e6

Already shown: 2 of the entries above.
mean viability with MMS, by gene and reagent
Zasp66: #2 3.62e6; #3 3.70e6

Additional reagents follow:
mean viability with MMS, by gene and reagent
pippin: #1 3.38e6
CG33922: #1 3.64e6
CG10433: #1 3.66e6
Rpn3: #1 3.19e6
Vm26Ab: #1 3.66e6
CG13616: #1 3.54e6
lncRNA:CR42646: #1 3.45e6
NijA: #1 3.40e6
CG3982: #1 2.99e6; #2 3.65e6
CG14257: #1 3.57e6
BomBc3: #1 3.54e6
tum: #1 3.55e6
CG7886: #1 3.53e6
Cht9: #1 3.59e6
sta: #1 3.34e6
pn: #1 3.59e6
CG32767: #1 3.42e6
CG6961 + CG18259: #1 3.74e6; #2 3.74e6
